42 sequences from publication PMC7819943, “Rice protein-binding microarrays: a tool to detect cis-acting elements near promoter regions in rice” can be followed below.

Protein sequences, listed by entry. Tags and fused reporters are not part of them.
UniProt Q0JBA9, entry or part of it: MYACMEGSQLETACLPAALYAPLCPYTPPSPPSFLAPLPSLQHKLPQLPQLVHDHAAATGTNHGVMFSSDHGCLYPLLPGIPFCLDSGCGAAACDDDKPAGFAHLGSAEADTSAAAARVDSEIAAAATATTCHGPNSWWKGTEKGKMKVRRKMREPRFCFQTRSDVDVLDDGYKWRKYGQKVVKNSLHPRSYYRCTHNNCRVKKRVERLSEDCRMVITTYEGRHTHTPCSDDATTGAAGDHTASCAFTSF

The list shows a part of the results.

In this test the target is OsWRKY34 (Oryza sativa, UniProt Q0JBA9 1-250). In words: protein-binding microarray (RPBM); PBS, 2% BSA, 51.3 ng/ul salmon testes DNA, 50 uM zinc acetate, 200 nM TF, 25 C, 1 h; high values mean tight binding. The following applies: protein: recombinant; tags: N-terminal polyhistidine and DsRed monomer fusion (pET32a); label: CyDye5-dUTP incorporated in the synthesized complementary strand; 3' TTTTT single-stranded linker to array surface; dsDNA, one strand shown. A digest of the protocol:
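A custom Agilent array was converted to double-stranded form by primer extension with Cy5-dUTP and blocked with 2% BSA. Protein at 200 nM in PBS with 2% BSA, salmon testes DNA and 50 µM zinc acetate was applied for 1 h at 25 °C, followed by washing. The proteins were polyhistidine–DsRed N-terminal fusions of transcription factors, expressed in E. coli BL21-CodonPlus and Ni–NTA-purified. The binding signal is per-feature fluorescence intensity (arbitrary units) from an Axon 4000B scanner.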
Take “CGTTTTCTTTATACTCCCTCCGTTTCGTTTTATTTGACGTCGGAGTCACCTAGTGCAG”: the binding signal was 8790 fluorescence intensity (a.u.).

With “ATAGCTCATTCATACAATAGTTACATACTACACTATTAATCGGAGTCACCTAGTGCAG”, the binding signal is 8680 fluorescence intensity (a.u.).

“GTGTGTTCGAGTTTCATCGCGATTCGATCGTTGTCTACTGCGGAGTCACCTAGTGCAG”: the binding signal is 8610 fluorescence intensity (a.u.).

“CTCGATTGCGTGTTGTAGATTTTGTGTTTTTGTTCTTGCGCGGAGTCACCTAGTGCAG”: the binding signal is 8030 fluorescence intensity (a.u.).

As to “TATTGGTAAAAAAGTTGACTTTTGCCATCTTTTGTGTTCTCGGAGTCACCTAGTGCAG”, the binding signal was 9050 fluorescence intensity (a.u.).

With “TCATCAATCATTGTCACTTACTACTTTTGTCTTCGTCTCCCGGAGTCACCTAGTGCAG”, the binding signal was 10800 fluorescence intensity (a.u.).

On to “TTGCAAGATACCAAATTTGTTACTTTCTTTATATATTTTTCGGAGTCACCTAGTGCAG”, for which the binding signal is 8930 fluorescence intensity (a.u.).

As for “AAACGTCAAAAGACTCAAAACCCAAAACCCGCGTGCTGACCGGAGTCACCTAGTGCAG”, the binding signal was 8030 fluorescence intensity (a.u.).

Consider “TCTAATCTACGATCCGATCCCACTGTTATATTCGTTGCAACGGAGTCACCTAGTGCAG”, for which the binding signal was 9530 fluorescence intensity (a.u.).

In the case of “ATCCCCAATCTTCTCAATTCGCGAATTCATCCTCTCCAGCCGGAGTCACCTAGTGCAG”, the binding signal was 8060 fluorescence intensity (a.u.).

Consider “CTTTTGACTGCCACAGTGTGTTAGGTATATGTTTGTTTCACGGAGTCACCTAGTGCAG”, for which the binding signal is 11700 fluorescence intensity (a.u.).

On to “GAACGCGCGCGCCACCGCGCCGCCTCCGCCGCCGCCAGCGCGGAGTCACCTAGTGCAG”, for which the binding signal is 8300 fluorescence intensity (a.u.).

On to “TTTTTTATGGCCCTTCTTTTTATATGTCTGATTGCTATTCCGGAGTCACCTAGTGCAG”, for which the binding signal is 9470 fluorescence intensity (a.u.).

On to “GTGTGTTTTGATCTTCCTCTCTCTAGGAAAGCTCTGTTTCCGGAGTCACCTAGTGCAG”, for which the binding signal is 8360 fluorescence intensity (a.u.).

In the case of “GCTCCCCGCCGCGCCGTCCGTCTCCGCCGTCGACCTCTCCCGGAGTCACCTAGTGCAG”, the binding signal is 15100 fluorescence intensity (a.u.).

Consider “ATTGATCACCCCATTCTCTACCATTTGTGTAGTTTTCCCACGGAGTCACCTAGTGCAG”, for which the binding signal was 10300 fluorescence intensity (a.u.).

Regarding “GTTTTCTTTCTTTTTTTTTTCCACCTGTCGCACTGTACATCGGAGTCACCTAGTGCAG”, the binding signal is 11800 fluorescence intensity (a.u.).

Turning to “AAAGATTCCGTTTCTTTCGAGCCCTTTTGGTCTCGGGTGGCGGAGTCACCTAGTGCAG”, the binding signal is 8550 fluorescence intensity (a.u.).

With “GGCAACAAAATTTACCTGCGTATATGTATTCGCTATATATCGGAGTCACCTAGTGCAG”, the binding signal is 8900 fluorescence intensity (a.u.).

Regarding “TACAACAAACCTAACATCAGCTACTTGTCATCGATCATCACGGAGTCACCTAGTGCAG”, the binding signal is 8790 fluorescence intensity (a.u.).

As for “CCACCTTCGCCCTTCTAGAACCTTCCCGCGTCCGCCAATGCGGAGTCACCTAGTGCAG”, the binding signal was 8190 fluorescence intensity (a.u.).

As to “TGTTGCGTGTTGCCGCTCCGCTTTTAGGCTCTCATTGGTGCGGAGTCACCTAGTGCAG”, the binding signal is 8070 fluorescence intensity (a.u.).

On to “TATCCATCATTCCATCCTCTCTCCCAGTCCCATCCTCAACCGGAGTCACCTAGTGCAG”, for which the binding signal is 9330 fluorescence intensity (a.u.).

“CCTGTCTCTGTCCCTGTCATGTTGACTCCAACCGGGTTAACGGAGTCACCTAGTGCAG”: the binding signal is 9100 fluorescence intensity (a.u.).

Regarding “TCGTCGCCATCATCGTCCCCGTCGCCCTGCGCCGCTGGCGCGGAGTCACCTAGTGCAG”, the binding signal is 8340 fluorescence intensity (a.u.).

For “CATATATAACTTCTACTCCTATCTATATATATCGCAAATACGGAGTCACCTAGTGCAG”, the binding signal is 8430 fluorescence intensity (a.u.).

Consider “GGGAAGGCGGCGATTGATTTGATTTGACCAAGATTGGTCGCGGAGTCACCTAGTGCAG”, for which the binding signal is 8090 fluorescence intensity (a.u.).

In the case of “TCTCCACGAACCGGCCAAGCCCAATTCGCCGTTGAGTTCCCGGAGTCACCTAGTGCAG”, the binding signal was 8230 fluorescence intensity (a.u.).

“CAGGGGTGGGTGTTAGCTGTTGTGCAAGAAGTGGTGTTTGCGGAGTCACCTAGTGCAG”: the binding signal is 10600 fluorescence intensity (a.u.).

With “GCCATCCAGACCCAGACCCACCCGAGACCACCACCATTATCGGAGTCACCTAGTGCAG”, the binding signal is 9670 fluorescence intensity (a.u.).

For the sequence “TTGTGTTCTGTTACTCTTATTCACCTTGGACACTGCATGACGGAGTCACCTAGTGCAG”, the binding signal was 10900 fluorescence intensity (a.u.).

Consider “TTCTACATTCTGTATCTTGATAATTCACTAAATTATGAACCGGAGTCACCTAGTGCAG”, for which the binding signal is 8400 fluorescence intensity (a.u.).

Turning to “TTGCGTGTGTGTATGTATATCGAGCCTTGTCTCAACTCAACGGAGTCACCTAGTGCAG”, the binding signal is 12800 fluorescence intensity (a.u.).

As for “AGGTCAGTTCTACATGTTCTAAATGTCTCCTATATATATTCGGAGTCACCTAGTGCAG”, the binding signal was 8340 fluorescence intensity (a.u.).

Regarding “CGCCGCCTCGTCACCGACCCCGCCTTCCACCGCCGCTTCCCGGAGTCACCTAGTGCAG”, the binding signal was 8830 fluorescence intensity (a.u.).

Regarding “GTTAATTGACCCCGCCCGTTCTATCCCATCGTCGCATCGACGGAGTCACCTAGTGCAG”, the binding signal was 9450 fluorescence intensity (a.u.).

As for “CCATTCCGCCTCTCTCGGCCGGTCTCTCCTCGCGGGATAGCGGAGTCACCTAGTGCAG”, the binding signal is 8600 fluorescence intensity (a.u.).

Regarding “AGTTGTTCTTCTCAGCAGGTTGCTGTCATCTTAGACTTTTCGGAGTCACCTAGTGCAG”, the binding signal was 8410 fluorescence intensity (a.u.).

With “GGTGGTGGTCTCATTGAGAAAGAGCGGTGGTGGCGGTCCGCGGAGTCACCTAGTGCAG”, the binding signal is 8880 fluorescence intensity (a.u.).

As to “CCGACTCCACCCGCGGCTTATCCCTCCTTTTTTTTTTCTTCGGAGTCACCTAGTGCAG”, the binding signal was 9600 fluorescence intensity (a.u.).

For “CCACTTACCATGGCTGTTGTAGGCTTGTCAGGGCAACCCGCGGAGTCACCTAGTGCAG”, the binding signal is 8220 fluorescence intensity (a.u.).

Turning to “CGTGCGGCCCATAATGTGTTGGGCTGGGGCAGAAATTCCGCGGAGTCACCTAGTGCAG”, the binding signal is 8550 fluorescence intensity (a.u.).
